Test results taken from publication PMC4855144.

Target: GFP-N-WASP ΔWA
Assay: co-IP; GFP microbeads precipitate GFP-N-WASP and fragments ΔWA, WH1, WH1-GBD from HEK293T cell extracts; endogenous CRN7 detected with mAb K37-142-1; ratio of co-IP to IP

binding: binds
B1: endogenous CRN7 (Coronin7) of HEK293T cells (protein, UniProt P57737 1-925)
chain: MNRFRVSKFRHTEARPPRRESWISDIRAGTAPSCRNHIKSSCSLIAFNSDRPGVLGIVPLQGQGEDKRRVAHLGCHSDLVTDLDFSPFDDFLLATGSADRTVKLWRLPGPGQALPSAPGVVLGPEDLPVEVLQFHPTSDGILVSAAGTTVKVWDAAKQQPLTELAAHGDLVQSAVWSRDGALVGTACKDKQLRIFDPRTKPRASQSTQAHENSRDSRLAWMGTWEHLVSTGFNQMREREVKLWDTRFFSSALASLTLDTSLGCLVPLLDPDSGLLVLAGKGERQLYCYEVVPQQPALSPVTQCVLESVLRGAALVPRQALAVMSCEVLRVLQLSDTAIVPIGYHVPRKAVEFHEDLFPDTAGCVPATDPHSWWAGDNQQVQKVSLNPACRPHPSFTSCLVPPAEPLPDTAQPAVMETPVGDADASEGFSSPPSSLTSPSTPSSLGPSLSSTSGIGTSPSLRSLQSLLGPSSKFRHAQGTVLHRDSHITNLKGLNLTTPGESDGFCANKLRVAVPLLSSGGQVAVLELRKPGRLPDTALPTLQNGAAVTDLAWDPFDPHRLAVAGEDARIRLWRVPAEGLEEVLTTPETVLTGHTEKICSLRFHPLAANVLASSSYDLTVRIWDLQAGADRLKLQGHQDQIFSLAWSPDGQQLATVCKDGRVRVYRPRSGPEPLQEGPGPKGGRGARIVWVCDGRCLLVSGFDSQSERQLLLYEAEALAGGPLAVLGLDVAPSTLLPSYDPDTGLVLLTGKGDTRVFLYELLPESPFFLECNSFTSPDPHKGLVLLPKTECDVREVELMRCLRLRQSSLEPVAFRLPRVRKEFFQDDVFPDTAVIWEPVLSAEAWLQGANGQPWLLSLQPPDMSPVSQAPREAPARRAPSSAQYLEEKSDQQKKEELLNAMVAKLGNREDPLPQDSFEGVDEDEWD

No constants are given. Whether binding was seen depends on the method and setting. Binding seen in cells or lysates may run through a third protein. Binding can be weak; no strength is given.
